Measurements published in patent US7919584B1, “Methods and compositions for diagnosis and treatment of asthma” (Arbor Vita Corporation, priority 2005, dated 2011).
These are yes or no findings as the source states them, for the method shown. Some binding calls cover weakened binding; strength is not graded here. For part of these data: Sequences can lack the tags named with a protein.

Protein sequences, listed by entry. Tags and fused reporters are not part of them. Residues count along the entry.
UniProt Q8TCU6, residues 612-713: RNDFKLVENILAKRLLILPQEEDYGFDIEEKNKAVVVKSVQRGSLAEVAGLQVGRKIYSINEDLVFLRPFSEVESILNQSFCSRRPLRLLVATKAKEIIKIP

What was measured:
Assay in all cases: modified G assay: GST-PDZ captured on anti-GST plate, biotinylated peptide pre-mixed with HRP-streptavidin; listed if OD450 at least 0.5 and signal to noise at least 1.5
[1] = target: GST-GORASP1 (PDZ #1) fusion protein (human) [GST: P08515]
[2] = target: GST-KIAA0313 PDZ domain fusion protein (human) [GST: P08515]
[3] = target: GST-KIAA1284 PDZ domain fusion protein (human) [GST: P08515]
[4] = target: GST-KIAA1415 PDZ domain fusion protein (human) (UniProt Q8TCU6)
[5] = target: T1, GST-MUPP1 (PDZ #10) fusion protein (human) (UniProt O75970)
T1 sequence (looked up): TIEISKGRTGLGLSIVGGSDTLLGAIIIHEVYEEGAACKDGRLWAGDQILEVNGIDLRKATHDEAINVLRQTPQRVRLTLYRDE

[6] = target: T2, GST-NeDLG (PDZ #3) fusion protein (human) (UniProt Q92796)
T2 sequence (looked up): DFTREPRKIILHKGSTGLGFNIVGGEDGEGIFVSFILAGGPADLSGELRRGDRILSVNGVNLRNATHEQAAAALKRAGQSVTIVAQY

Measured: binding

YGRKKRRQRRRIGELQLSIA (biotin at the amino-terminus)
binds: all assays above
